{
  "source": "paper PMC12651750",
  "about": "(Cells, 2025)",
  "test_system": "Jurkat cells",
  "test": "Whole proteomic analysis (mass spectrometry)",
  "type": "cell-based, human",
  "details": "48 h",
  "procedure": "The cell cultivation was completed in a 60 mm plate; the number of cells accounted for roughly 30–40% of the orifice. We stimulated cells with 1 μM and 5 μM of NBU-2 and 0.1% DMSO. […] After 48 h, the cells were collected, about 200 μL of NP-40 Lysis Buffer containing phosphatase inhibitor and protease inhibitor was added, and the cells were lysed to release the proteins. Measure the protein concentration of each group of samples using the BCA protein quantification method. The disulfide bonds in the protein structure were reduced using TCEP and then alkylated with IAA. Samples were added to a centrifugal filtration unit with an ultrafiltration membrane, and proteins were digested using trypsin 2 times, the first time for 4 h and the second time overnight with the addition of an appropriate amount of trypsin. […] Samples were reconstituted using 0.1% formic acid, and approximately 1 μg of protein was taken for detection using mass spectrometry.\nMass spectrometry analysis was performed using an Orbitrap Fusion Lumos mass spectrometer (Thermo Fisher Scientific, Shanghai, China). Chromatographic separations were performed on an Acclaim PepMap C18 column using a 60 min linear gradient elution program: the proportion of mobile phase B (acetonitrile containing 0.1% formic acid) was increased from 2% to 35%, and the flow rate was maintained at 250 nL/min. Raw data were processed using Proteome Discoverer 2.3 software (Thermo Fisher Scientific, Shanghai, China) and compared with the UniProt human protein database. Peptide-mass spectrometry matching (PSM) was filtered using the Percolator algorithm, with a false positive rate (FDR) of less than 1% [14].",
  "data": [
    {"smiles": "Cc1cccc2c(=O)c3c(NCCCCCC(=O)NO)ccc([N+](=O)[O-])c3[nH]c12", "note": "[NBU-2, N-hydroxy-6-((5-methyl-4-nitro-9-oxo-9,10-dihydroacridin-1-yl)amino)hexanamide]", "values": [
      {"measurement": "Proteins down-regulated after drug treatment", "setting": "1 μM and 5 μM", "result": 81},
      {"measurement": "Proteins up-regulated after drug treatment", "setting": "1 μM and 5 μM", "result": 64},
      {"measurement": "Differentially expressed proteins (same trend in 1 μM and 5 μM groups)", "setting": "p < 0.05 and |Log2 FC| > 1", "result": 145}
    ]}
  ]
}
